Consider one molecule from patent US20250333441A1, “POLYPEPTIDE INHIBITORS AND USES THEREOF” (Neuracle Science Co., Ltd., priority 2021, published 2025).

Amino acid sequences for entries named in this document (tags omitted). A change or cut given only in a name is not applied to a line headed by its entry.
UniProt Q7Z5A7: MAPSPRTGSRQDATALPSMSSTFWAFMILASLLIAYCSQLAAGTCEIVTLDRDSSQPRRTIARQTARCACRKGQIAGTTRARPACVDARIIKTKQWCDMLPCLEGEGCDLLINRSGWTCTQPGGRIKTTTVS

These are yes or no findings as the source states them, for the method shown. Binding seen in cells or lysates may run through a third protein. Some results given as binding are weak or reduced against the parent protein; the word gives no strength. Sequences can lack the tags named with a protein.

Experiment [1] concerns the target Human FAM19A5 Protein (Isoform 1) (human) (UniProt Q7Z5A7). Kind of experiment: immunofluorescence and co-immunoprecipitation, co-transfected HEK293 cells.
Experiment [2] has the same target. Kind of experiment: co-immunoprecipitation and immunofluorescence colocalisation, co-transfected HEK293 cells.

B1: FLAG-tagged LRRC4B protein (receptor, not shown: small tags and cut ends)
chain: AGGGGVAVTSAAGGGSPPATSCPVACSCSNQASRVICTRRDLAEVPASIPVNTRYLNLQENGIQVIRTDTFKHLRHLEILQLSKNLVRKIEVGAFNGLPSLNTLELFDNRLTTVPTQAFEYLSKLRELWLRNNPIESIPSYAFNRVPSLRRLDLGELKRLEYISEAAFEGLVNLRYLNLGMCNLKDIPNLTALVRLEELELSGNRLDLIRPGSFQGLTSLRKLWLMHAQVATIERNAFDDLKSLEELNLSHNNLMSLPHDLFTPLHRLERVHLNHNPWHCNCDVLWLSWWLKETVPSNTTCCARCHAPAGLKGRYIGELDQSHFTCYAPVIVEPPTDLNVTEGMAAELKCRTGTSMTSVNWLTPNGTLMTHGSYRVRISVLHDGTLNFTNVTVQDTGQYTCMVTNSAGNTTASATLNVSAVDPVAAGGTGSGGGGPGGSGGVGGGSGGYTYFTTVTVETLETQPGEEALQPRGTEKEPPGPTTDGVWGGGRPGDAAGPASSSTTAPAPRSSRPTEKAFTVPITDVTENALKDLDDVMKTTKIIIGCFVAITFMAAVMLVAFYKLRKQHQLHKHHGPTRTVEIINVEDELPAASAVSVAAAAAVASGGGVGGDSHLALPALERDHLNHHHYVAAAFKAHYSSNPSGGGCGGKGPPGLNSIHEPLLFKSGSKENVQETQI
As for B1, the binding result in experiment [1] and in experiment [2] was “binds” throughout.
